In PubChem BioAssay AID493014 (National Center for Advancing Translational Sciences (NCATS), 2011):
Screen size: about 340,000 compounds; about 170 (0.05%) were called active. The shares of active, inactive and inconclusive entries below differ from those in the screen. Calls come from the whole dose curve; as a rule, active = well fitted inhibition curve with a large enough effect in the signal ratio, with a control signal flat (not every such curve was filed as active); inconclusive = small, poorly fitted or top-dose-only effect, or effect the other way, or a change in a side signal; inactive = flat fitted curve, though single readings scatter; the % refers to the signal ratio. Potencies beside an inconclusive call are fits to weak or partial responses and may not hold up.

Test: qHTS Assay to Find Inhibitors of Chronic Active B-Cell Receptor Signaling;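 for activity change, negative = inhibition: plate controls were basal doxycycline-induced cells for no effect and cells given 10 µM MG132 for full effect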
Settings: ABC-DLBCL IkBa-CBG/CBR reporter, luminescence ratio (green luciferase fused to IkBa over red control in TMD8 lymphoma cells), 4 h; activity change, negative = inhibition: at 46.1 µM (top of the series)
Summary of the method: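 Compounds up to 46 uM were incubated four hours with TMD8 cells whose green CBG68 luciferase is fused to IkappaBalpha; red CBR luminescence normalised the signal, and concentration-effect curves were fitted to fusion, red and ratio data.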
Potency is the fitted concentration of half-maximal effect.

| Compound | activity change, negative = inhibition | Potency |
| --- | --- | --- |
| CCCC1=[N+](CC(=O)c2ccccc2)CCn2c(C)ccc21 | inactive | – |
| Cc1c(CCOC(=O)c2ccccc2)sc[n+]1CC(=O)c1ccc(Br)cc1 | inconclusive: -29% | – |
| COc1ccc(NS(=O)(=O)c2cccc(C(=O)NNC(=O)c3ccc(Br)o3)c2)cc1 | – | inconclusive: 25.9 µM [falling, partial curve, poor fit] |
| COc1cccc(-n2c(=O)c3c(C)c(C(=O)N(C)C)sc3n(Cc3cccc(C)c3)c2=O)c1 | – | inconclusive: 6.31 µM [falling, single point] |
| COc1cc(/C=C/C(=O)c2ccc(C)c([N+](=O)[O-])c2)cc(OC)c1O | – | inconclusive: 11.6 µM [falling, partial curve] |
| CC/C(C)=N/NC(=S)NCc1ccco1 | – | inconclusive: 20.6 µM [falling, single point] |
| CCOc1ccc(NC(=O)CN(C)C(=O)c2sc3ccccc3c2Cl)cc1OCC | inconclusive: 1% | – |
| Cc1cccc(NC(=O)c2cc(-c3cc(C)c(C)cc3O)n[nH]2)c1 | – | inconclusive: 12.6 µM [falling, partial curve] |
| CCC/C(O)=C1\C(=O)CC(C)(C)CC1=Nc1ccc(OC)cc1OC | inconclusive: -19.8% | – |
| O=C(O)c1cccc(-n2cccc2/C=C2\NC(=O)N(Cc3ccc(F)cc3)C2=O)c1 | inactive | – |
| COC(=O)C1CSC(C(=O)OC)N1C(=O)CN1CC(C)OC(C)C1 (centres undefined) | – | inconclusive: 20.6 µM [falling, partial curve] |
| O=C(CSc1nc(=O)n(Cc2cccnc2)c2c1CCC2)Nc1cccc(Cl)c1 | inconclusive: 7.17% | – |
| Cc1ccc(Nc2nc(CSc3nnc(-c4cccs4)o3)cs2)cc1 | inconclusive: -15.8% | – |
| O=C(COC(=O)c1cc([N+](=O)[O-])ccc1NCCO)c1ccccc1 | inconclusive: 0.604% | – |
| CCOc1cc2[nH]c(=O)n(Cc3ccc(C(=O)N4CCN(c5ccccc5)CC4)cc3)c(=O)c2cc1OCC | inactive | – |
| CC(=O)OCC1(C)CN(c2ccccc2)NC1=O (centres undefined) | inactive | – |
| O=C(NCc1ccco1)c1cccc2c1C(=O)c1ccc(N3CCC(Cc4ccccc4)CC3)cc1S2(=O)=O | inactive | – |
| COc1ccccc1/C=N/NC(=O)CC(=O)NCc1cccnc1 | – | inconclusive: 18.4 µM [falling, partial curve, poor fit] |
| CC(=O)c1ccc(NC(=O)c2cccs2)cc1 | – | inconclusive: 29.1 µM [falling, partial curve] |
| CCC(=O)N/C(N)=N/c1nc2ccccc2o1 | – | inconclusive: 35.5 µM [rising, single point] |
| COc1ccc(C(=O)O)cc1NC(=S)NC(=O)/C=C/c1ccc(C(C)C)cc1 | – | inconclusive: 22.4 µM [falling, single point] |
| O=C(NNC(=O)C1C2C=CC(C2)C1C(=O)O)c1cc(Cl)ccc1O (centres undefined) | inconclusive: 282% | – |
| COc1ccc(C)cc1N(CC(=O)NCCSCc1cccc(Cl)c1)S(C)(=O)=O | inactive | – |
| COc1ccc(NC(=O)c2oc3ccc(S(=O)(=O)N4CCCCC4)cc3c2C)cc1Cl | inactive | – |
| COc1cccc(-c2noc(CCC(=O)Nc3cccnc3)n2)c1 | – | inconclusive: 3.66 µM [rising, partial curve, poor fit] |

| Compound | activity change, negative = inhibition | Potency |
| --- | --- | --- |
| O=C(CSC(=S)N1CCSCC1)c1ccccc1 | – | inconclusive: 35.5 µM [falling, single point] |
| N#CC1=C(N)SC(N)=C(C#N)C1c1cccc(Oc2ccccc2)c1 | inconclusive: 8.25% | – |
| CCCC(=O)Nc1ccc(C(=O)n2nnc3ccccc32)cc1 | inconclusive: 10.2% | – |
| CCc1nc2nc(C)c(NS(=O)(=O)c3ccc(Cl)s3)c(=O)n2[nH]1 | inactive | – |
| CCOC(=O)c1sc(NC(=O)C2CSC3(C)CCC(=O)N23)nc1C (centres undefined) | inconclusive: 4.45% | – |
| O=C(O)CCN1C(=O)/C(=C\c2cccc(Oc3ccccc3)c2)SC1=S | – | inconclusive: 12.6 µM [falling, partial curve] |
| CC(Oc1ccc(F)cc1)C(=O)Nc1ccccc1C(=O)N1CCCCC1 (centres undefined) | inconclusive: 2.8% | – |
| CCCC(=O)Nc1sc2c(c1C#N)CCCC2 | inconclusive: 0.646% | – |
| Cc1cc(N2CCN(c3ccccc3)CC2)nc(-n2nc(C)cc2C)n1 | inconclusive: 9.93% | – |
| CCOC(=O)C1=C(N)OC2=C(C(=O)CC(C)(C)C2)C1c1ccc(C)s1 (centres undefined) | inconclusive: 3.64% | – |
| Cc1ccc(CCC(=O)Nc2ccc(Br)cc2)o1 | inactive | – |
| O=C(O)C1C(C(=O)Nc2ccc(Cl)cc2)C2C=CC1C21CC1 (centres undefined) | inconclusive: 25.9% | – |
| O=C(COc1ccc(Br)cc1)NNC(=S)NCc1ccccc1 | inactive | – |
| Cc1cc(OCCCC(=O)NC2=NCCS2)ccc1Cl | – | inconclusive: 29.1 µM [rising, single point] |
| CC1C/C(=C/c2ccccn2)C(=O)/C(=C/c2ccccn2)C1 (centres undefined) | – | inconclusive: 3.55 µM [falling, single point] |
| Cc1nnc(SCCn2c(N3CC(C)CC(C)C3)nc3c2c(=O)[nH]c(=O)n3C)s1 (centres undefined) | inconclusive: 5.23% | – |
| O=C(CCSCc1cccc(Cl)c1)NCc1ccccc1Cl | inactive | – |
| CCn1nc(C)cc1C(=O)N1CCCC(C(=O)c2ccc(Oc3ccccc3)cc2)C1 (centres undefined) | – | inconclusive: 35.5 µM [falling, single point] |
| CN1C(=O)c2ccc(NC(=O)c3c(F)c(F)c(F)c(F)c3F)cc2C1=O | – | inconclusive: 7.31 µM [falling, single point] |
| COc1cc(C(=O)N/C(=C\c2cn(S(=O)(=O)N(C)C)c3ccccc23)C(=O)NCCCO)cc(OC)c1OC | inconclusive: 2.11% | – |
| O=C(COc1ccccc1Cl)Nc1cccc(S(=O)(=O)N2CCCC2)c1 | – | inconclusive: 23.1 µM [falling, single point] |
| CC(C)Oc1ccc(C(=O)N2CCN(c3nc4c(F)cc(F)cc4s3)CC2)cc1 | inconclusive: 21.3% | – |
| COc1cc(C(c2nnnn2C(C)(C)C)N2CCN(c3nc4ccccc4s3)CC2)ccc1O (centres undefined) | inconclusive: -27.3% | – |
| COc1ccc(C(=O)COC(=O)CCn2nnc(-c3cccc(O)c3OC)n2)cc1 | inconclusive: 6.13% | – |

In a second layout: 2 of the compounds above.
Compound	activity change, negative = inhibition	Potency
CN1C(=O)c2ccc(NC(=O)c3c(F)c(F)c(F)c(F)c3F)cc2C1=O	–	inconclusive: 7.31 µM [falling, single point]
COc1cc(C(=O)N/C(=C\c2cn(S(=O)(=O)N(C)C)c3ccccc23)C(=O)NCCCO)cc(OC)c1OC	inconclusive: 2.11%	–
